Experiment: Host-guest interaction with bacitracin by 1H-NMR
Type: binding
Settings: same manner as Test Example 19

## NCCNCCN [DET, diethylenetriamine]
  host-guest interaction with bacitracin (changes in 1H-NMR chemical shifts): intermolecularly interacts with the ring structure of bacitracin

## NNc1nnc(NN)c2ccccc12 [dihydralazine]
  host-guest interaction with bacitracin (changes in 1H-NMR chemical shifts): intermolecularly interacts with the ring structure of bacitracin

Source: US12714754B2, “Delivery of cyclic compound by using carrier” (priority 2018, dated 2026)
